Earlier results, collected in patent US8709434B2, “Compositions for inhibiting NADPH oxidase activity” (PCB Associates, Inc., priority 2006, dated 2014).
For at least one compound, name, drawing or mass did not settle the structure.

Conditions: rats, sustained infusions; cited from earlier work

Structure (SMILES): C=CC1=C(C)/C(=C/c2[nH]c(Cc3[nH]c(/C=C4\NC(=O)C(C)=C4C=C)c(C)c3CCC(=O)O)c(CCC(=O)O)c2C)NC1=O [bilirubin]
- endotoxin-induced shock (severe hypotension and death): considerable ameliorated
